This note sets out measurements from PubChem BioAssay AID248 (DTP/NCI, 2004).

This experiment has as its system L1210 leukemia ip in BDF1 mice, survival T/C. The experiment in a line: NCI In Vivo Anticancer Drug Screen. Data for tumor model L1210 Leukemia (intraperitoneal) in B6D2F1 (BDF1) mice. The following applies: T/C endpoint: mean survival time, higher T/C = longer survival.
The mark [1] stands for this setting: dose: 200.0 mg/kg/injection, schedule: Q04DX003 (ip), vehicle: Klucel (hydroxypropylcellulose) (HPC).
The mark [2] stands for this setting: dose: 400.0 mg/kg/injection, schedule: Q04DX003 (ip), vehicle: Klucel (hydroxypropylcellulose) (HPC).
Setting [3] is: dose: 400.0 mg/kg/injection, schedule: Q01DX009 (ip), vehicle: saline with Tween-80.
[4] abbreviates: dose: 100.0 mg/kg/injection, schedule: Q04DX002 (ip), vehicle: Klucel (hydroxypropylcellulose) (HPC).
[5] abbreviates: dose: 200.0 mg/kg/injection, schedule: Q04DX002 (ip), vehicle: saline.
The mark [6] stands for this setting: dose: 400.0 mg/kg/injection, schedule: Q04DX002 (ip), vehicle: saline.
The mark [7] stands for this setting: dose: 400.0 mg/kg/injection, schedule: Q04DX003 (ip), vehicle: saline with Tween-80.
The mark [8] stands for this setting: dose: 200.0 mg/kg/injection, schedule: Q04DX002 (ip), vehicle: Klucel (hydroxypropylcellulose) (HPC).
[9] abbreviates: dose: 400.0 mg/kg/injection, schedule: Q04DX002 (ip), vehicle: Klucel (hydroxypropylcellulose) (HPC).
Where [10] appears, read: dose: 400.0 mg/kg/injection, schedule: Q04DX003 (ip), vehicle: saline.
Where [11] appears, read: dose: 400.0 mg/kg/injection, schedule: Q01DX009 (ip), vehicle: Klucel (hydroxypropylcellulose) (HPC).
Where [12] appears, read: dose: 400.0 mg/kg/injection, schedule: Q01DX001 (ip), vehicle: saline.

The list shows only some results of the screen, not a fair sample: it gathers tests that were run many times, whatever their T/C, doses with no T/C, and many T/C values between a quarter and a half above the control. Further doses and runs are listed elsewhere. T/C gives the treated animals as a percentage of the vehicle group. Some entries give survivors of the animals treated and no T/C: the source holds a T/C of zero for them, seemingly a mark for toxic or unscored doses. Some survivor counts are full or nearly so, which does not show that the dose was tolerated: survival well below the control is almost never listed, so the zero probably covers shortened survival too. Counts of survivors are from the toxicity check (mostly the fifth day) where no day follows; animals may have died later. Schedule codes are those of the source, taken here to give the interval after Q, in days (D) or hours (H), and the number of doses after X. Some entries hold several experiments; the results are listed from low to high. Where survival is the endpoint, this PubChem deposit counts one and a half times the control or more as active, and values a quarter to a half above the control carry no call in these data; other NCI protocols may use other cut-offs.

Regarding `CS(=O)(=O)Nc1ccc(Nc2c3ccccc3nc3cc([N+](=O)[O-])ccc23)cc1`, the T/C (dose: 0.04 mg/kg/injection, schedule: Q01DX009 (ip), vehicle: saline) is 134 % of control; the T/C (dose: 0.08 mg/kg/injection, schedule: Q01DX009 (ip), vehicle: saline) was 128 % of control; the T/C (dose: 0.24 mg/kg/injection, schedule: Q01DX009 (ip), vehicle: saline) was 137 % of control; the T/C (dose: 0.31 mg/kg/injection, schedule: Q01DX009 (ip), vehicle: saline) was 138 % of control; the T/C (dose: 0.36 mg/kg/injection, schedule: Q01DX009 (ip), vehicle: saline) was 142 % of control; the T/C (dose: 0.55 mg/kg/injection, schedule: Q01DX009 (ip), vehicle: acetone) was 136 % of control. Further, the T/C is 127 % of control (dose: 0.62 mg/kg/injection, schedule: Q01DX009 (ip), vehicle: saline); 130 % of control (dose: 0.9 mg/kg/injection, schedule: Q01DX001 (ip), vehicle: acetone); 129 and 147 % of control (dose: 1.25 mg/kg/injection, schedule: Q01DX009 (ip), vehicle: saline); 134 % of control (dose: 1.37 mg/kg/injection, schedule: Q01DX001 (ip), vehicle: saline); 145 % of control (dose: 2.06 mg/kg/injection, schedule: Q01DX001 (ip), vehicle: saline); 135 % of control (dose: 2.5 mg/kg/injection, schedule: Q01DX009 (ip), vehicle: saline). The T/C was 126 and 143 % of control (dose: 5.0 mg/kg/injection, schedule: Q01DX009 (ip), vehicle: saline); 132 % of control (dose: 5.0 mg/kg/injection, schedule: Q01DX009 (sc), vehicle: Klucel (hydroxypropylcellulose) (HPC)); 125 % of control (dose: 50.0 mg/kg/injection, schedule: Q01DX001 (ip), vehicle: saline). Also, the survivor count reads like this: (dose: 10.0 mg/kg/injection, schedule: Q01DX009 (ip), vehicle: Klucel (hydroxypropylcellulose) (HPC)) 6 of 6; (dose: 10.0 mg/kg/injection, schedule: Q01DX009 (ip), vehicle: saline) 6 of 6; (dose: 20.0 mg/kg/injection, schedule: Q01DX009 (ip), vehicle: Klucel (hydroxypropylcellulose) (HPC)) 4 of 6; (dose: 20.0 mg/kg/injection, schedule: Q01DX009 (ip), vehicle: saline) 6 of 6; (dose: 40.0 mg/kg/injection, schedule: Q01DX009 (ip), vehicle: Klucel (hydroxypropylcellulose) (HPC)) 2 of 6; (dose: 40.0 mg/kg/injection, schedule: Q01DX009 (ip), vehicle: saline) 6 of 6. Further, the survivor count (dose: 80.0 mg/kg/injection, schedule: Q01DX009 (ip), vehicle: Klucel (hydroxypropylcellulose) (HPC)) was 0 of 6.
Take `CCCCCCCCCCCC(=O)NC(=S)Nc1ccc(S(N)(=O)=O)cc1`: the survivor count runs as follows: (dose: 100.0 mg/kg/injection, schedule: Q04DX003 (ip), vehicle: Klucel (hydroxypropylcellulose) (HPC)) 6 of 6; under setting [1], 6 of 6; under setting [2], 6 of 6.
As to `COc1ccc(NC(=S)Nc2ccccc2S)cc1`, the survivor count under setting [3] is listed as 3 of 3.
Regarding `CCN(CC)CCN(CC)C(=O)C1C(c2ccccc2)C1c1ccccc1` (centres undefined), the survivor count is given as 1 of 3 under setting [4]; 1 of 3 (dose: 100.0 mg/kg/injection, schedule: Q04DX002 (ip), vehicle: saline); 0 of 3 under setting [5]; 0 of 3 under setting [6].
In the case of `CCCCCCCCCCc1cc2c([nH]1)C(=O)c1ccccc1C2=O`, the survivor count (dose: 150.0 mg/kg/injection, schedule: Q01DX001 (ip), vehicle: Klucel (hydroxypropylcellulose) (HPC)) is on record as 6 of 6.
Regarding `CNC(=O)Nc1ccc(OC)cc1Cl`, the survivor count (dose: 200.0 mg/kg/injection, schedule: Q01DX009 (ip), vehicle: Klucel (hydroxypropylcellulose) (HPC)) is given as 6 of 6.
Regarding `Cc1cc(=O)[nH]c2ccccc12`, the survivor count under setting [7] is recorded as 3 of 6.
For `CN(C)CC(Oc1ccccc1)c1ccccc1` (centres undefined), the survivor count is, setting by setting: under setting [5], 0 of 3; under setting [6], 0 of 3.
As to `Oc1c(Br)cc(Br)cc1/C=N/N1CCN(/N=C/c2cc(Br)cc(Br)c2O)CC1`, the survivor count (dose: 200.0 mg/kg/injection, schedule: Q01DX001 (ip), vehicle: saline) is listed as 4 of 4.
As to `O=C(Nc1ncc([N+](=O)[O-])s1)c1ccc(Cl)s1`, the survivor count (dose: 25.0 mg/kg/injection, schedule: Q04DX002 (ip), vehicle: Klucel (hydroxypropylcellulose) (HPC)) is 1 of 3; the survivor count (dose: 50.0 mg/kg/injection, schedule: Q04DX002 (ip), vehicle: Klucel (hydroxypropylcellulose) (HPC)) was 0 of 3; the survivor count under setting [4] was 0 of 3; the survivor count under setting [8] was 0 of 3; the survivor count under setting [9] is reported as 0 of 3.
Take `N#CCCC[P+](c1ccccc1)(c1ccccc1)c1ccccc1`: the survivor count was 1 of 6 (dose: 150.0 mg/kg/injection, schedule: Q01DX001 (ip), vehicle: other); 0 of 3 under setting [8]; 0 of 6 (dose: 300.0 mg/kg/injection, schedule: Q01DX001 (ip), vehicle: other); 0 of 3 under setting [9].
`CC1=NN(c2cccc(Cl)c2)C(=O)C1`: the survivor count is 6 of 6 (dose: 100.0 mg/kg/injection, schedule: Q04DX003 (ip), vehicle: saline with Tween-80) and 3 of 6 under setting [3].
As for `CCCN(CCC)CC(C)=O`, the survivor count is, setting by setting: (dose: 400.0 mg/kg/injection, schedule: Q01DX009 (ip), vehicle: saline) 0 of 6; under setting [10], 1 of 6.
For `CCCCCCCCCCCCNC(C)=O`, under setting [11], the survivor count is listed as 2 of 3.
With `COc1ccc(CCNC(=O)c2ccc(Cl)c(Cl)c2)cc1OC`, the survivor count by setting is: (dose: 200.0 mg/kg/injection, schedule: Q04DX002 (ip), vehicle: saline with Tween-80) 3 of 3; (dose: 400.0 mg/kg/injection, schedule: Q04DX002 (ip), vehicle: saline with Tween-80) 3 of 3.
As for `CCC[n+]1c(C)oc2ccc(-c3ccccc3)cc21`, for the setting “dose: 200.0 mg/kg/injection, schedule: Q01DX009 (ip), vehicle: saline with Tween-80”, the survivor count was 6 of 6.
In the case of `O=C(O)CC(Br)CBr` (centres undefined), the survivor count under setting [12] is on record as 1 of 4.
As to `C=COC(=O)NC(Cc1ccccc1)C(=O)O` (centres undefined), the survivor count under setting [12] is recorded as 0 of 6.
Turning to `COC1=[C]([Hg][Br])C(OC)OC1OC` (centres undefined), the survivor count (dose: 20.0 mg/kg/injection, schedule: Q01DX009 (ip), vehicle: saline with Tween-80) is listed as 3 of 6.
As to `CC1(CCl)OCCO1`, under setting [11], the survivor count was 5 of 6.
For `C#CCOCC(CCl)OC(N)=O` (centres undefined), the survivor count under setting [3] is recorded as 0 of 6 and the survivor count under setting [7] is given as 1 of 7.
Take `C=C1C(=O)OC2/C=C(/CO)C3OC3C3OC3(C)CC(OC(=O)/C(C)=C\COC(C)=O)C12` (centres undefined): the survivor count by setting is: under setting [1], 1 of 6; under setting [2], 2 of 6.
As for `O=C(O)c1cccc(Br)c1.[Ni]`, the survivor count is, setting by setting: under setting [4], 0 of 3 and 2 of 3; under setting [8], 0 of 3; under setting [9], 1 of 3.
As for `CC(=O)O[C@H]1CCCC[C@@H]1NC(=O)N(CCCl)N=O`, the survivor count was 10 of 10 (dose: 90.0 mg/kg/injection, schedule: Q01DX001 (ip), vehicle: carboxymethylcellulose (CMC)) and 9 of 10 (dose: 135.0 mg/kg/injection, schedule: Q01DX001 (ip), vehicle: carboxymethylcellulose (CMC)).
Consider `O=S(=O)(CCCl)Cc1ccc(Cl)cc1`, for which, under setting [9], the survivor count is 3 of 3.
Regarding `NC(N)=NC1CCCC1`, the survivor count is, setting by setting: (dose: 200.0 mg/kg/injection, schedule: Q04DX003 (ip), vehicle: saline) 0 of 6; under setting [10], 0 of 6.
